Test results published in patent publication US6569833B1, “Cyclin dependent kinase binding peptides” (Cyclacel Limited, priority 1995, dated 2003).
Some entries share one result that the patent states for a list of compounds.

The chains behind the UniProt entries cited, without tags or fusion partners. Where a name states a change or a piece, a line headed by the entry shows the natural chain unless it says otherwise.
UniProt P11802: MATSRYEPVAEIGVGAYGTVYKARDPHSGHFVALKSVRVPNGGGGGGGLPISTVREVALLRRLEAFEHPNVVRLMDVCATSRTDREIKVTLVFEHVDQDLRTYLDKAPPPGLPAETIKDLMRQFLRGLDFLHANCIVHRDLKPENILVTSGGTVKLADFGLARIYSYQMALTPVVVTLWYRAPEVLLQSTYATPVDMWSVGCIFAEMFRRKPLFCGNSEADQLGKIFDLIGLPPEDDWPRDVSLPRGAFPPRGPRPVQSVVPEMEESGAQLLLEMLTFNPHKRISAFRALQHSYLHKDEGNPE

Biological target: T1, cdk4-cyclin D (Homo sapiens, UniProt P11802)
T1 construct: made in house; host or cells: Sf9 insect cells infected with baculovirus (separate crude lysates for cdk4 and cyclin D, mixed in the assay)
Experiment: pRb phosphorylation in vitro by Sf9 lysates containing cdk4 and cyclin D
Format: biochemical
Set-up: dose or concentration left out as unconfirmed
Settings: full length Rb protein
Protocol: Peptides were incubated at a concentration of […] in a buffer containing 50 mM Hepes pH 7.4, 10 mM MgCl2, 2.5 mM EGTA, 1 mM DTT, 10 mM β-glycerophosphate, 1 mM NaF and 1 mM Na3VO4 and […] of extract from Sf9 insect cells infected with human cdk4-expressing baculovirus lysed in 10 mM Hepes pH 7.4, 10 mM NaCl, 1 mM EDTA and 0.5 mM PMSF. The mixture was incubated for 60 minutes on ice. Human cyclin D containing Sf9 lysate ([…]) prepared as above was added together with 0.6 mg of purified recombinant full length Rb protein and 2.5 mM ^32P ATP in a final concentration of […] ATP and incubated for 10 minutes at +30° C., the reaction was terminated by addition of SDS loading buffer and loaded onto 8% SDS polyacrylamide gels. The gels were either exposed to autoradiographic film (FIG. 2A) or the levels of pRb phosphorylation were estimated by a Phosphoimager (FIG. 2B).

inhibition of pRb phosphorylation | Sequence
once again increased the inhibition | EGFLDTLVVLHRAGAR [peptide 7, 16 aa peptide of the p16 deletion series]
once again increased the inhibition | FLDTLVVLHRAG [peptide 9, 12 aa peptide of the p16 deletion series]
once again increased the inhibition | FLDTLVVLHRAGAR [peptide 8, 14 aa peptide of the p16 deletion series]
